Data reported in the supplement of paper PMC3334620.
Whole data set: some 33,000 sequences, median “E-score (-0.5 to 0.5)” near -0.0034, cut for the highest 2% near 0.25. The list shows a part of the results.

Target: T1, Yap3 (UniProt P38749)
T1 sequence: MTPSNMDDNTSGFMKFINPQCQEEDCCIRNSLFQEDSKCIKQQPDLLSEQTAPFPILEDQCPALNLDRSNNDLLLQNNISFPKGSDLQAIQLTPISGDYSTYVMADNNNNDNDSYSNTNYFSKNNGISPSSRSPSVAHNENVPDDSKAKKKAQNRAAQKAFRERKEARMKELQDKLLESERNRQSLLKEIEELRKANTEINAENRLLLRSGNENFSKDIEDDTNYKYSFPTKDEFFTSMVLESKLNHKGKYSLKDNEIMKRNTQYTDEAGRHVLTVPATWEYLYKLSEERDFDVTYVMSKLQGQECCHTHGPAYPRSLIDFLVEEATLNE
Assay: PBM E-score (8-mer binding enrichment) (E-score (-0.5 to 0.5)); higher = stronger / more preferred TF binding
Details: protein concentration: 100 nM; construct: GST-full length
How it was run: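 Universal all-10-mer Agilent arrays, fresh or stripped once, were converted to double-stranded form by primer extension. GST-tagged yeast transcription factors from PURExpress in vitro transcription/translation, full-length or DNA-binding domain only, were applied at about 100-200 nM and detected with fluorescent anti-GST. After masliner normalisation, the Universal PBM Analysis Suite scored each ungapped eight-base word together with its reverse complement by E-score.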

Sequence	PBM E-score
TACGCTAA	0.177
TATATGGA	0.108
GAGTATGC	0.0326
CCTCCGTA	-0.0157
AGTCCTAG	-0.165
CATTCAAG	-0.0224
CTACTTAA	0.00148
CATGTCGG	-0.167
CAGCGTAG	-0.031
AAGGACCG	-0.218
AGCGTCTC	-0.138
GGCTCACA	-0.0615
GACACGTA	0.0699
CCTCCTGA	-0.115
GAATGGCC	-0.0883
CTCCGGTC	-0.224
CATCGAGC	0.019
CAGTCGTC	-0.172
CAGCCGCG	-0.13
CCGGGCAG	-0.25
ATACAGTA	0.1
AAAAATGG	0.172

Sequence	PBM E-score
TCCATACA	0.0188
CGTGGTAC	-0.179
ACCGTGAC	-0.0732
ACTTGACC	-0.1
CGGAGCCC	-0.285
AGAAGACA	0.00673
AGGAGAGC	-0.293
CTATAGCA	0.0881
AAGCGTTG	0.00349
TATTTCCA	0.00077
AATTTAGG	0.194
ACGGCGAC	-0.128
AAAGAGAC	0.0961
ATGCATCG	0.0631
GAATGTTA	0.154
AGTGTGAA	0.183
AGCGTCCG	-0.168
GACAACTA	0.139
ATCGTAGC	0.0572
ACTCCGGC	-0.0211
GATGCTAA	0.0345
AAGCATAA	0.127

Sequence	PBM E-score
AGAGGCAT	-0.0393
AGACATAC	0.0492
CGGATTTA	0.0923
CCAGCAAC	0.0144
TCCGAGGA	-0.0268
CCCGTCTC	-0.254
CCGGTCCG	-0.29
ATGAGATA	0.0846
GGACTTAC	0.0689
GATTGGCA	-0.0962
CGTAGGCC	-0.14
GCCCTCGA	-0.0443
AGCGTATC	-0.0352
ACGAGCCT	-0.141
ACCAGCAA	0.13
CTACCCTC	-0.0893
AGCTAGAC	-0.142
GCGATCAA	0.0161
GTCATGTA	0.00979
GCACCCAA	-0.192
ATGGGTTG	0.0295
CTAAGCAG	-0.205

Shown bar-delimited: part of the list above
Sequence | PBM E-score
ATGCATCG | 0.0631
GAATGTTA | 0.154
AGTGTGAA | 0.183
AGCGTCCG | -0.168
GACAACTA | 0.139
ATCGTAGC | 0.0572
ACTCCGGC | -0.0211
GATGCTAA | 0.0345
AAGCATAA | 0.127
AGAGGCAT | -0.0393
AGACATAC | 0.0492
CGGATTTA | 0.0923
CCAGCAAC | 0.0144
TCCGAGGA | -0.0268
CCCGTCTC | -0.254
CCGGTCCG | -0.29
ATGAGATA | 0.0846
GGACTTAC | 0.0689
GATTGGCA | -0.0962
CGTAGGCC | -0.14
GCCCTCGA | -0.0443
AGCGTATC | -0.0352
ACGAGCCT | -0.141
ACCAGCAA | 0.13
CTACCCTC | -0.0893
AGCTAGAC | -0.142
GCGATCAA | 0.0161
GTCATGTA | 0.00979
GCACCCAA | -0.192
ATGGGTTG | 0.0295
CTAAGCAG | -0.205

(listing goes on)

Sequence	PBM E-score
TCAATCCA	0.0716
ATTTCGGC	0.0324
CCCTTTGC	-0.0908
AGCCAAGA	-0.0031
AGTGTTTA	0.169
CAGCTGCC	-0.0739
ACATATAT	0.123
ACGACGGC	-0.0705
CACTACGG	0.0333
GTCAGTGA	-0.0524
TCCGATCA	0.108
AGAGAAAA	0.0508
GTATATAA	0.217
ATTGGACG	0.109
AGTGACGG	0.0964
ACTTTGCC	-0.0297
CAATTCAA	0.072
ACCTTAAT	0.104
AATCGGGC	0.0438
CAAGCATG	-0.058
CATTCGCG	0.038
CGACGGGC	-0.0448

Sequence	PBM E-score
CTAACGGC	0.00219
AGATAAAG	0.174
AACTTAGC	-0.0179
ACAATCCA	0.287
ATTTAAAT	0.212
GGATTGCC	-0.116
ACACGAGC	-0.105
ATGACTCG	-0.0589
CCGCGATC	-0.0303
CTGGGACC	-0.279
GGCTTAGA	-0.192
AACTCCAG	-0.134
CATTCCAC	0.0665
AACCATAG	-0.0373
ACTGTGAC	0.215
GGCAAGCA	-0.186
CTGCTCAA	0.061
GCAATGAA	0.139
GTGATAGA	0.0565
ATTTAAAG	0.1
AATAAGGA	0.0471
AGTTGGCA	-0.0258
